In PMC11993990:
Results are given in words; binding and its absence hold for the method and conditions named. Binding seen in cells or lysates may run through a third protein. Some binding calls cover weakened binding; strength is not graded here. Sequences can lack the tags named with a protein.

Chains of the proteins cited; added tags and fusions are not shown. Residues count along the entry.
UniProt P10852: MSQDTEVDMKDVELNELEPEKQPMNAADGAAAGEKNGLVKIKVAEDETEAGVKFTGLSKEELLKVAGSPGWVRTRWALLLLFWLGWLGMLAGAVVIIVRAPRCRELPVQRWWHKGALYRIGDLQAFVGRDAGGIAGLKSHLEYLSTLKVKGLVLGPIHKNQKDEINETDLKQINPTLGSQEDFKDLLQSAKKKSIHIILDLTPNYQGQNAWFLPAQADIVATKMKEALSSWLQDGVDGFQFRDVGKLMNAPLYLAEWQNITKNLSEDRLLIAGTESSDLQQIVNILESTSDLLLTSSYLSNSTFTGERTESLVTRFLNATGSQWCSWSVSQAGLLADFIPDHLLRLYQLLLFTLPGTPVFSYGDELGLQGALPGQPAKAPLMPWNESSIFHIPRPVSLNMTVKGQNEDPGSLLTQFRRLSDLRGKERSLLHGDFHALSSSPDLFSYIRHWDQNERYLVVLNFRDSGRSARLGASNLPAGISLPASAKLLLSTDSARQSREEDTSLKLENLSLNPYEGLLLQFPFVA
UniProt P29317, residues 24-976: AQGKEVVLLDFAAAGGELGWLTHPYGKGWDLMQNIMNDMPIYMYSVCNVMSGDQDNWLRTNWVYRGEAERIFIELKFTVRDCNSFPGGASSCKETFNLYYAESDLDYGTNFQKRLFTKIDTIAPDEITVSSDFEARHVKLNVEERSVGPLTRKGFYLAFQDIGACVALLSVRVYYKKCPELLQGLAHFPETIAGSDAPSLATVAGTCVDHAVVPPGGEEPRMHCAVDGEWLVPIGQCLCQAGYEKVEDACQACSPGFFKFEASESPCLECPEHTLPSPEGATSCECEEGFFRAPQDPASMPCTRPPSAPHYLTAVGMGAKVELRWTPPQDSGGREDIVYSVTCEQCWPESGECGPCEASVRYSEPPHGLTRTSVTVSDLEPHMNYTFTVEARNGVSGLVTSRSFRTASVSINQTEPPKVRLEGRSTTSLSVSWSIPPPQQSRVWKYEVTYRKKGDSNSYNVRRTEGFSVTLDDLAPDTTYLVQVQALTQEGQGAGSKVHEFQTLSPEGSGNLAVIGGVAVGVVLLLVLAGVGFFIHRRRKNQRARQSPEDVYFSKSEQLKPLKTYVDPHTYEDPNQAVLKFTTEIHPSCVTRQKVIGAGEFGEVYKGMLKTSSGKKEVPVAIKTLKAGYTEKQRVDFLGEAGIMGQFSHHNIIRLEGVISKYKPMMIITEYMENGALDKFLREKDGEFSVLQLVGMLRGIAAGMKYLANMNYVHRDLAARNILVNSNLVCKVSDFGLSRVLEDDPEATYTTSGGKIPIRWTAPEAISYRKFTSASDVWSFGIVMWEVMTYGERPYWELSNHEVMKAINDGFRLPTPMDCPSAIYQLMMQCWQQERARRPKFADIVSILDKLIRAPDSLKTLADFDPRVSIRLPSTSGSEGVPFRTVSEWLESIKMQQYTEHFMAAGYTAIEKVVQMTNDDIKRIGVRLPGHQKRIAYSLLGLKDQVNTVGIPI

What was measured:
[1] = target: T1, Hag epitope-tagged R-RAS2 transiently transfected in BT-549 cells (UniProt P62070); assay: co-IP; human BT-549 cells transfected with Hag-tagged R-RAS2, 0.5% Brij96 lysate; anti-Hag (12CA5) or IgG2b isotype control on Protein G Sepharose, overnight at 4 °C; blots for Epha2, CD44, CD98 and Hag
T1 sequence: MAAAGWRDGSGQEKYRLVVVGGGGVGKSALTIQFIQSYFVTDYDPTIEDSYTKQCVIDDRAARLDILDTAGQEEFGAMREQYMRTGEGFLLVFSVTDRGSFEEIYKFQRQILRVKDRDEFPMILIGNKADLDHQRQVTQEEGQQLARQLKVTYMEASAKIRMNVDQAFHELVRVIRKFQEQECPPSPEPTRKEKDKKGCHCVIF

[2] = target: T2, human wild-type R-RAS2 tagged at the N-terminus with a hemagglutinin (Hag) epitope, from the Rosa26-RRAS2fl/fl knock-in (human) (UniProt P62070); assay: co-IP; CBM-MBC21 mouse cells, 0.5% Brij96 lysate; anti-Hag (12CA5) or IgG2b isotype control on Protein G Sepharose, overnight at 4 °C; blots for Epha2, CD44, CD98 and Hag
T2 sequence: T1 sequence

Substance | binding [1] | binding [2]
CD98 heavy chain (SLC3A2), human, in BT-549 cells (from UniProt P08195 1-529) | binds | –
CD98 heavy chain (Slc3a2), mouse (from UniProt P10852 1-526) | – | binds
Epha2 receptor tyrosine kinase, human, in BT-549 cells (from UniProt P29317 24-976) | binds | –
